Test results taken from US20240316140A1 (UBIO INC., priority 2021, published 2024).
At least one peptide structure holds a part that was inferred or is arguable (an end, a ring closure or a residue). Some entries share one result that the patent states for a list of compounds. Residues, ends and D or L forms follow the SMILES beside them.

Legend:
Type in all cases: cell-based, human
[1] = tested on: HepG2 hepatoma cell line; test: HepG2 cytotoxicity evaluation of peptide (MTT); conditions: HepG2, 24 hours
Method: After culturing a HepG2 hepatoma cell line, three kinds of synthetic peptides were added by concentration, and MTT (methylthiazol tetrazolium bromide, Sigma Aldrich) was carried out to confirm cell viability. An appropriate amount (1×10^5/well) of cells was seeded on each well in a 24-well plate (BD, Falcon) to treat a sample according to the concentration, and cell viability was confirmed after cultivation for 24 hours in a 37° C. incubator.

[2] = tested on: HepG2 cells; test: Liver function test index AST of peptide, t-BHP-treated cells; conditions: 20 mM t-BHP
[3] = tested on: HepG2 cells; test: Liver function test index ALT of peptide, t-BHP-treated cells; conditions: 20 mM t-BHP

Row | SMILES | cytotoxicity: non-toxicity up to [1] | AST Inhibitory Ability ([2]; 10 ug/ml peptide) [%] | ALT Inhibitory Ability ([3]; 0.01 ug/ml peptide) [%] | ALT Inhibitory Ability ([3]; 0.1 ug/ml peptide) [%] | ALT Inhibitory Ability ([3]; 1 ug/ml peptide) [%] | AST Inhibitory Ability ([2]; 0.1 ug/ml peptide) [%] | AST Inhibitory Ability ([2]; 1 ug/ml peptide) [%]
1 | CC(C)[C@H](N)C(=O)N[C@H](C(=O)N[C@H](C(=O)N[C@@H](CCC(=O)O)C(=O)O)C(C)C)C(C)C [PEP-1, VVVE] (H-VVVE-OH; N-terminus and C-terminus assumed) | up to 10 μg/ml | 2 | – | – | – | – | –
2 | CC(C)C[C@H](NC(=O)CNC(=O)[C@@H](N)CC(=O)O)C(=O)N[C@@H](Cc1c[nH]cn1)C(=O)N[C@@H](CC(C)C)C(=O)N[C@@H](CCCNC(=N)N)C(=O)O [PEP-2, DGLHLR] (H-DGLHLR-OH; N-terminus and C-terminus assumed) | up to 10 μg/ml | 34 | 21 | 30 | 34 | 4 | 15
